According to patent US20120095019A1 (priority 2010, published 2012):
“And” between values parts separate entries of the source, which are not always exact repeats. Identical values can stand only once.

Experiment: Clinical trial in atrial fibrillation (SPAF) patients: betrixaban plasma concentrations with or without concomitant amiodarone

Plasma Concentration of amiodarone (week 4, individual patient, betrixaban dose per day 80 mg): 542 ng/mL
SMILES: CCCCc1oc2ccccc2c1C(=O)c1cc(I)c(OCCN(CC)CC)c(I)c1 [amiodarone]
Plasma Concentration of amiodarone (week 4, individual patients, betrixaban dose per day 40 mg): 891 ng/mL and 620 ng/mL and 691 ng/mL and 671 ng/mL | Plasma Concentration of amiodarone (week 4, individual patients, betrixaban dose per day 60 mg): 555 ng/mL and 1349 ng/mL and 968 ng/mL and 432 ng/mL and 607 ng/mL
